Results: article PMC12054630
Results are given in words; binding and its absence hold for the method and conditions named. Binding seen in cells or lysates may run through a third protein. Some results given as binding are weak or reduced against the parent protein; the word gives no strength.

Sequences of proteins named here, by UniProt entry; tags and fusion partners are left off.
UniProt Q8BH43: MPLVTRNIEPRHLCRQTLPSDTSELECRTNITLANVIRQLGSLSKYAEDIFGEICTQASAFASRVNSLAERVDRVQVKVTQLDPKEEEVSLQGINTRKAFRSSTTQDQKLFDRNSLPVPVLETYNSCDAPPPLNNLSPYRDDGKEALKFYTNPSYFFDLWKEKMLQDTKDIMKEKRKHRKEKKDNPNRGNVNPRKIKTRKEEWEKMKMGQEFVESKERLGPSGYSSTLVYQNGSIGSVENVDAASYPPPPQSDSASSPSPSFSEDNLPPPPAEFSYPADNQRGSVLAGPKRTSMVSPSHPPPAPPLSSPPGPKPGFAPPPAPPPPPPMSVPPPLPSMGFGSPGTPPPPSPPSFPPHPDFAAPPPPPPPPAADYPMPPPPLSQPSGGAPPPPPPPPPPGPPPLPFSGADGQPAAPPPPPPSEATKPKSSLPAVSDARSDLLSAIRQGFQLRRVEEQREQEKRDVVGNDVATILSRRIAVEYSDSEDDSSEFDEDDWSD
UniProt Q9Y6W5: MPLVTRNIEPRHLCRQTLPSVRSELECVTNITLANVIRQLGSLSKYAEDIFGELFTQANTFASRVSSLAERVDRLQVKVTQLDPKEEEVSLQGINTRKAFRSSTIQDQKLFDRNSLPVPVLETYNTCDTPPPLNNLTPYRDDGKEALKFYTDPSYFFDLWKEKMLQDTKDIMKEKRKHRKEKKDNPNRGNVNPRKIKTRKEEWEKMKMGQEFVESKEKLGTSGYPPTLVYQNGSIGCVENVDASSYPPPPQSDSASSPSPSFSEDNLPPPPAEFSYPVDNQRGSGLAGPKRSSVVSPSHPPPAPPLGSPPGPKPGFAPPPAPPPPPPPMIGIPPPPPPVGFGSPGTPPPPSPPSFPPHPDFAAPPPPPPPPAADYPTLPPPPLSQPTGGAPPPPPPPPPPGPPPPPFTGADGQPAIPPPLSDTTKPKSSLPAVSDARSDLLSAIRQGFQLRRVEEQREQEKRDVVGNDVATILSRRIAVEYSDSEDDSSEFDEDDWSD

T1: Sorbin and SH3 Domain Containing 2 (SORBS2), human iPS-derived cardiomyocytes (human (endogenous in hiPS-CMs)) (UniProt O94875)
T1 sequence: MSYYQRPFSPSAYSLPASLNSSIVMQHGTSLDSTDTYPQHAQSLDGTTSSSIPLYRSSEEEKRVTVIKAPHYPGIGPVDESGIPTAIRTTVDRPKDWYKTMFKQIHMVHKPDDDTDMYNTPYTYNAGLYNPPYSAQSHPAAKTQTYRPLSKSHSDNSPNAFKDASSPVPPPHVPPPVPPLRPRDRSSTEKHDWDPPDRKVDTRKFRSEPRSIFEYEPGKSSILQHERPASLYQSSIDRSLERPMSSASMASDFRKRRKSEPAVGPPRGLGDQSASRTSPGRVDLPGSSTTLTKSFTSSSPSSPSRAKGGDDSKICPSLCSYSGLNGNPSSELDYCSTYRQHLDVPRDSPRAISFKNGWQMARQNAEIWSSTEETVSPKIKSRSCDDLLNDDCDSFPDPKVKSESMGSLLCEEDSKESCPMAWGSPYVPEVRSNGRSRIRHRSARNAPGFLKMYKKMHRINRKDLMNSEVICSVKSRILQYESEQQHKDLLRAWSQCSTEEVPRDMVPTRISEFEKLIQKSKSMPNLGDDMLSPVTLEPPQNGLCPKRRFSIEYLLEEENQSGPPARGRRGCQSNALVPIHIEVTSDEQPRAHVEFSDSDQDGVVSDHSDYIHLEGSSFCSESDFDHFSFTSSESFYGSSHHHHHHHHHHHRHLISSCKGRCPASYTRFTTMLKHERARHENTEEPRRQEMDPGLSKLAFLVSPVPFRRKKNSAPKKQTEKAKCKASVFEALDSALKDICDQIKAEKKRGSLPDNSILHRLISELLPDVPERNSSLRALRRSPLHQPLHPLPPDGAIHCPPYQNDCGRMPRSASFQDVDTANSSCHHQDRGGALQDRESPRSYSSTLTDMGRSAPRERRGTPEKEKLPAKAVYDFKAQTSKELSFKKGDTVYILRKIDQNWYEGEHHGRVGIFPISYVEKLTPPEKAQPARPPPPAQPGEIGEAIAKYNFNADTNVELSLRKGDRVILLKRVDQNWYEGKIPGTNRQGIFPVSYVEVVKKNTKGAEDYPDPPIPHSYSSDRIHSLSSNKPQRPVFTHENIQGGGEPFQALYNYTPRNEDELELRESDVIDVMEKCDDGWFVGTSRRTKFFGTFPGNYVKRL


Experiments:
[1] = target: T1, Sorbin and SH3 Domain Containing 2 (SORBS2), human iPS-derived cardiomyocytes (human (endogenous in hiPS-CMs)); test: co-IP; endogenous SORBS2 precipitated with a SORBS2 bait antibody from highly pure hiPS-CMs; western blot for WAVE2
[2] = target: WAVE2, cardiac tissue (mouse (endogenous in cardiac tissue)) (UniProt Q8BH43); test: co-IP; reversed pull-down: WAVE2 bait antibody on cardiac tissue lysate; SORBS2 detected

binding [1] | binding [2] | Molecule
binds | – | WAVE2, human iPS-derived cardiomyocytes (from UniProt Q9Y6W5 1-498)
– | binds | Sorbin and SH3 Domain Containing 2 (SORBS2), mouse heart (protein, UniProt Q3UTJ2 1-1180) MNTDSGGCARKRAAMSVTLTSVKRVQSSPNLLAAGRESQSPDSAWRSYNDRNPETLNGDATYSSLAAKGFRSVRPNLQDKRSPTQSQITINGNSGGAVSPVSYYQRPFSPSAYSLPASLNSSIIMQHGRSLDSAETYSQHAQSLDGTMGSSIPLYRSSEEEKRVTVIKAPHYPGIGPVDESGIPTAIRTTVDRPKDWYKTMFKQIHMVHKPGLYNSPYSAQSHPAAKTQTYRPLSKSHSDNGTDAFKEVPSPVPPPHVPPRPRDQSSTLKHDWDPPDRKVDTRKFRSEPRSIFEYEPGKSSILQHERPVSIYQSSIDRSLERPSSSASMAGDFRKRRKSEPAVGPLRGLGDQSSSRTSPGRADLPGSSSTFTKSFISSSPSSPSRAQGGDDSKMCPPLCSYSGLNGTPSGELECCNAYRQHLDVPGDSQRAITFKNGWQMARQNAEIWSSTEETVSPKIKSRSCDDLLNDDCDSFPDPKTKSESMGSLLCEEDSKESCPMTWASPYIQEVCGNSRSRLKHRSAHNAPGFLKMYKKMHRINRKDLMNSEVICSVKSRILQYEKEQQHRGLLHGWSQSSTEEVPRDVVPTRISEFEKLIQKSKSMPNLGDEMLSPITLEPPQNGLCPKRRFSIESLLEEETQVRHPSQGQRSCKSNTLVPIHIEVTSDEQPRTHMEFSDSDQDGVVSDHSDYVHVEGSSFCSESDFDHFSFTSSESFYGSSHHHHHHHHHHRHLISSCKGRCPASYTRFTTMLKHERAKHENMDRPRRQEMDPGLSKLAFLVSPVPFRRKKILTPQKQTEKAKCKASVVEALDSALKDICDQIKAEKRRGSLPDNSILHRLISELLPQIPERNSSLHALKRSPMHQPFHPLPPDGASHCPLYQNDCGRMPHSASFPDVDTTSNYHAQDYGSALSLQDHESPRSYSSTLTDLGRSASRERRGTPEKEKLPAKAVYDFKAQTSKELSFKKGDTVYILRKIDQNWYEGEHHGRVGIFPISYVEKLTPPEKAQPARPPPPVQPGEIGEAIAKYNFNADTNVELSLRKGDRIILLKRVDQNWYEGKIPGTNRQGIFPVSYVEVVKRNAKGAEDYPDPPLPHSYSSDRIYTLSSNKPQRPGFSHENIQGGGEPFQALYNYTPRNEDELELRESDVVDVMEKCDDGWFVGTSRRTKFFGTFPGNYVKRL
